Patent EP0233461B2, “4,5,6-Substituted-2-pyrimidinamines” (AMERICAN CYANAMID COMPANY, priority 1986, dated 1987)
“And” between values parts separate entries of the source, which are not always exact repeats. Equal values may be shown once. At least one compound was matched to its structure with a doubt left.

Test system: Obese mice [C57 BI/6J (ob/ob)] and diabetic mice [C57 BI/Ks (db/db)]
Experiment: Hypoglycemic activity: plasma/blood glucose in obese (ob/ob) and diabetic (db/db) mice fed test compound in chow
Type: in vivo
Details: dose 0.1 % (W/W) in chow

## CCN(CC)c1ccc(Nc2nccc(-c3cccnc3)n2)cc1 [N,N-Diethyl-N^1-[4-(3-pyridinyl)-2-pyrim-idinyl]-1,4-benzene]
Day 0 (before first treatment)
  Blood Glucose Levels in mg/100ml: 210 mg/100ml and 216 mg/100ml
Day 5
  Blood Glucose Levels in mg/100ml: 163 mg/100ml and 153 mg/100ml
